These are yes or no findings as the source states them, for the method shown. For some of these results: Binding seen in cells or lysates may run through a third protein. Some results given as binding are weak or reduced against the parent protein; the word gives no strength. For some of these results: Sequences can lack the tags named with a protein.

Consider five molecules from publication PMC4876403.

Assay [1] addresses T1, BD/ANO1 seg(a) (human) (UniProt Q5XXA6).
T1 sequence: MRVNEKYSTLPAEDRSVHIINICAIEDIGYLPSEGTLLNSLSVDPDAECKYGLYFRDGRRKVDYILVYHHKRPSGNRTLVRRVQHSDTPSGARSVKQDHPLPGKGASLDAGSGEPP
Description: two-hybrid; conventional Y2H screening with ANO1 segment a as bait; positive clones isolated.

Assay [2] concerns the target T2, segment a of ANO1 (co-IP constructs of Supplementary Figs 2a and 3c) (human) (UniProt Q5XXA6).
T2 sequence: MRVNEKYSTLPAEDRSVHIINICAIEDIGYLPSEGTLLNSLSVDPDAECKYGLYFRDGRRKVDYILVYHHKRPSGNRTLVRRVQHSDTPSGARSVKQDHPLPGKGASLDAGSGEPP
The assay can be described thus: co-IP; segment a with seven 14-3-3 isoforms (Supplementary Fig. 2a); lysates of transfected HEK293T cells; 50 mM Tris-HCl pH 7.4, 150 mM NaCl, 5 mM EDTA, 0.1% Triton X-100.

The target of assay [3] is T3, native ANO1 of glioblastoma cells (human (endogenous in U251, T98G, U138)) (UniProt Q5XXA6).
T3 sequence: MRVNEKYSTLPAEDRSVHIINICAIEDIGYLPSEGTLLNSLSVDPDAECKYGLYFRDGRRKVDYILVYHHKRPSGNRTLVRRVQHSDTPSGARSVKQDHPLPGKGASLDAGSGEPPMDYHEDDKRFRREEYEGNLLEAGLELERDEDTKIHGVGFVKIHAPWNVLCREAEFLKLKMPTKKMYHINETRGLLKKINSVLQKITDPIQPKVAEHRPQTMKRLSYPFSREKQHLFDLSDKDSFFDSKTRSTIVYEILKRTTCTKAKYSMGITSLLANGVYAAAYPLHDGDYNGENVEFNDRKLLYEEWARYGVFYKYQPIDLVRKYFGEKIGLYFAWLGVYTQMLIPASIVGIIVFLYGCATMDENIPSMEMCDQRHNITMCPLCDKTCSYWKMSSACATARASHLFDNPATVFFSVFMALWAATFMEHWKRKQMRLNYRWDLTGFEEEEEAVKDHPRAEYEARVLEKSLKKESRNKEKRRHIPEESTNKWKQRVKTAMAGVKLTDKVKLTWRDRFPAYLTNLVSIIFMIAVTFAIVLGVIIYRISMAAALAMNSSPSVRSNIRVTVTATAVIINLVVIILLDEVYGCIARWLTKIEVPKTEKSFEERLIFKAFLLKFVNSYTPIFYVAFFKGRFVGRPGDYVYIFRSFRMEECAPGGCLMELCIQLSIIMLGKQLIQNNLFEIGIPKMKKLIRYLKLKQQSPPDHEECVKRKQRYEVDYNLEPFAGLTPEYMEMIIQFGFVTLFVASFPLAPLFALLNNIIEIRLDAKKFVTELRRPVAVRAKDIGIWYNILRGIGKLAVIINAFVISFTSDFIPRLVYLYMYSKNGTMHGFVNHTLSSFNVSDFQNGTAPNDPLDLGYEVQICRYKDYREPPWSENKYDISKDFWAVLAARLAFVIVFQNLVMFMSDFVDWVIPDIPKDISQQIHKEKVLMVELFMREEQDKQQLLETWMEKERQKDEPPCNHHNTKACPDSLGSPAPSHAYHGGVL
Description: co-IP; data not shown; endogenous proteins in T98G and U138 cells.

In assay [4] the target is T3, native ANO1 of glioblastoma cells (human (endogenous in U251, T98G, U138)). The assay can be described thus: proximity ligation; Duolink PLA in U251 cells with anti-ANO1 (ab64085, rabbit) and anti-14-3-3γ (ab118877, mouse); cells with Sc shRNA, shRNA knock-down as control.
Assay [5] has the same target. The assay can be described thus: co-IP; endogenous proteins, U251 lysate; IP with anti-ANO1 (ab53212), blot with anti-14-3-3γ (ab69592); 50 mM Tris-HCl pH 7.4, 150 mM NaCl, 5 mM EDTA, 0.1% Triton X-100.
Assay [6] addresses T1, BD/ANO1 seg(a) (human). The assay can be described thus: two-hybrid; BD/ANO1 seg(a) and AD/14-3-3γ co-transformed into yeast strain AH109; growth on medium without Thr, Leu and His (TLH-); empty vector as control.
In the next assay the target is T4, MBP-14-3-3γ (human) (UniProt P61981).
T4 sequence: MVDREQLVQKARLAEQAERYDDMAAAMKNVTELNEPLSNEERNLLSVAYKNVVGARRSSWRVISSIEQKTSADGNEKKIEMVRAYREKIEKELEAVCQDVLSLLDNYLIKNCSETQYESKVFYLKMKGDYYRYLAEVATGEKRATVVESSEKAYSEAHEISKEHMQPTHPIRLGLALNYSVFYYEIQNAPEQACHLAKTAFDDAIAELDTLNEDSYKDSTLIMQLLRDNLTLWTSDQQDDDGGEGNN
The assay can be described thus: pull-down; MBP-14-3-3γ from BL-21 on MBP agarose beads; lysates of HEK293T cells with GFP-seg(a) or GFP-seg(a)-T9A; 2 h at 4 °C; washed with ice-cold PBS; western blot; only the target purified. A general note: Immunoblotting shows a protein as a band on a membrane.

B1: human 14-3-3γ (positive clone of the Y2H screen) (protein, UniProt P61981 1-247)
chain: MVDREQLVQKARLAEQAERYDDMAAAMKNVTELNEPLSNEERNLLSVAYKNVVGARRSSWRVISSIEQKTSADGNEKKIEMVRAYREKIEKELEAVCQDVLSLLDNYLIKNCSETQYESKVFYLKMKGDYYRYLAEVATGEKRATVVESSEKAYSEAHEISKEHMQPTHPIRLGLALNYSVFYYEIQNAPEQACHLAKTAFDDAIAELDTLNEDSYKDSTLIMQLLRDNLTLWTSDQQDDDGGEGNN
With B1, the binding entry with BD/ANO1 seg(a) (human) [1] was “binds”.

B2: 14-3-3γ (co-IP constructs of Supplementary Figs 2a and 3c) (protein, UniProt P61981 1-247)
chain: MVDREQLVQKARLAEQAERYDDMAAAMKNVTELNEPLSNEERNLLSVAYKNVVGARRSSWRVISSIEQKTSADGNEKKIEMVRAYREKIEKELEAVCQDVLSLLDNYLIKNCSETQYESKVFYLKMKGDYYRYLAEVATGEKRATVVESSEKAYSEAHEISKEHMQPTHPIRLGLALNYSVFYYEIQNAPEQACHLAKTAFDDAIAELDTLNEDSYKDSTLIMQLLRDNLTLWTSDQQDDDGGEGNN
Consider B2, for which the binding entry in assay [2] is “binds”.

B3: native 14-3-3γ of glioblastoma cells (protein, UniProt P61981 1-247)
chain: MVDREQLVQKARLAEQAERYDDMAAAMKNVTELNEPLSNEERNLLSVAYKNVVGARRSSWRVISSIEQKTSADGNEKKIEMVRAYREKIEKELEAVCQDVLSLLDNYLIKNCSETQYESKVFYLKMKGDYYRYLAEVATGEKRATVVESSEKAYSEAHEISKEHMQPTHPIRLGLALNYSVFYYEIQNAPEQACHLAKTAFDDAIAELDTLNEDSYKDSTLIMQLLRDNLTLWTSDQQDDDGGEGNN
For B3, the binding entry in assay [3], in assay [4] and in assay [5] was “binds” throughout.

B4: AD/14-3-3γ (protein, UniProt P61981 1-247)
chain: MVDREQLVQKARLAEQAERYDDMAAAMKNVTELNEPLSNEERNLLSVAYKNVVGARRSSWRVISSIEQKTSADGNEKKIEMVRAYREKIEKELEAVCQDVLSLLDNYLIKNCSETQYESKVFYLKMKGDYYRYLAEVATGEKRATVVESSEKAYSEAHEISKEHMQPTHPIRLGLALNYSVFYYEIQNAPEQACHLAKTAFDDAIAELDTLNEDSYKDSTLIMQLLRDNLTLWTSDQQDDDGGEGNN
Consider B4, for which, in the assay with BD/ANO1 seg(a) (human) [6], the binding entry is given as “binds”.

B5: GFP-ANO1 seg(a) (domain or fragment, UniProt Q5XXA6 1-116)
chain: MRVNEKYSTLPAEDRSVHIINICAIEDIGYLPSEGTLLNSLSVDPDAECKYGLYFRDGRRKVDYILVYHHKRPSGNRTLVRRVQHSDTPSGARSVKQDHPLPGKGASLDAGSGEPP
Regarding B5, the binding result with MBP-14-3-3γ (human) is “binds”.
